# Data published in ChEMBL document CHEMBL5143593 (Eur J Med Chem, 2022).
# Test: Permeability of compound at pH 7.4 by PAMPA assay
smiles,measurement,value
COc1cc2c(cc1OC)C(=O)C(CC1CCN(Cc3ccccc3)CC1)C2 (stereo unspecified) [DONEPEZIL],Papp,21 ×10⁻⁶ cm/s
